According to PubChem BioAssay AID2417 (National Center for Advancing Translational Sciences (NCATS), 2010):
The whole screen tested about 140,000 compounds, of which about 4,300 (3.1%) were called active. Inconclusive results, whose numbers are uncertain, are shown with a selection of clear calls.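 Rule for the calls: active = readout at or below -70, meaning at least 70% loss of cells showing the perinucleolar compartment, a nuclear body marking cancer cells; inconclusive = readout between -30 and a set limit; inactive = the rest.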

Test: High Content Assay for Compounds that inhibit the Assembly of the Perinucleolar Compartment;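 note: plate controls were DMSO wells for no effect and camptothecin positive control wells for full effect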
Details: PC3M PTB-GFP, PNC prevalence imaging, 16 h; at 10 µM; stronger effect = lower value
In short: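 Compounds are pinned in duplicate onto adhered PC3M cells stably expressing GFP-tagged PTB and incubated 16 h at 37 C. Cells are then fixed, nuclei stained with Hoechst, and PNC-positive cells counted.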

Row | Compound | activity change (PNC), negative = inhibition
1 | Cn1c(N)c(C(=O)COC(=O)Cn2cc(C(F)(F)F)ccc2=O)c(=O)n(C)c1=O | inconclusive: -48.4%
2 | CCOC(=O)CSc1nc2c(sc3ccc([N+](=O)[O-])cc32)c(=O)n1Cc1ccco1 | active: -86.6%
3 | Cc1cc(C)c(C#N)c(N2CCN(Cc3ccc4c(c3)OCO4)CC2)n1 | inconclusive: -40.4%
4 | O=C(NCCc1ccccc1Cl)C1CCN(S(=O)(=O)c2cccs2)CC1 | inconclusive: -47.1%
5 | N#CNC(=Nc1cccc(F)c1)SCc1cccc(F)c1 | inactive: -16%
6 | CSc1nnc2n(-c3ccccc3)c(=O)c3c4c(sc3n12)CCC4 | inactive: 14.7%
7 | C=CCNC(=O)NC(=O)COC(=O)CC(NC(N)=O)c1ccc(Cl)cc1 (stereo not drawn) | inactive: -2.2%
8 | COc1cc(CC(=O)NCCc2ccc(S(N)(=O)=O)cc2)cc(OC)c1OC | inactive: 0.309%
9 | CCOCC(=O)Nc1nc2ccc(OCC)cc2s1 | inconclusive: -73.1%
10 | Cc1[nH]n(-c2ccccc2)c(=O)c1-c1ccc(Cl)cc1 | inactive: -16.1%
11 | Cc1nn(Cc2c(F)c(F)c(F)c(F)c2F)c(C)c1NC(=O)c1ccc(COc2ccccc2Cl)cc1 | inconclusive: -45.5%
12 | O=C(Nc1ncc(Cc2cccc(C(F)(F)F)c2)s1)c1ccc(-c2cccc([N+](=O)[O-])c2)o1 | inconclusive: -33.2%
13 | Cc1cc(C)c(C#N)c(Sc2nnnn2-c2ccccc2)n1 | inactive: 19.1%
14 | O=C(CSc1ccccn1)N1CCN(c2ccccc2)CC1 | inconclusive: -45%
15 | CCOC(=O)N1CCN(c2cccc(C)c2C)CC1 | inconclusive: -30.7%
16 | COc1ccc(N2CC(C(=O)Nc3nnc(SCc4ccccn4)s3)CC2=O)cc1 (stereo not drawn) | inconclusive: -58.1%
17 | COc1ccc(-c2nc3ccccc3c(=O)o2)cc1OC | inactive: -4.59%
18 | C=CCc1cccc2cc(C(=O)OCC(=O)c3ccccc3)c(=O)oc12 | inconclusive: -39.6%
19 | CCOC(=O)N1CCN(C(=S)Nc2ccc(C)c(C)c2)CC1 | inconclusive: -33%
20 | Cc1ccc(Nc2nc(N/N=C/c3c[nH]c4ccccc34)nc(N3CCOCC3)n2)cc1 | inconclusive: -55.7%
21 | COC(=O)C(C(=O)Nc1ncccn1)C1CCCCCC1 (stereo not drawn) | inconclusive: -53%
22 | O=c1c2cc(-c3ccccc3)sc2ncn1/N=C/c1ccco1 | inconclusive: -46.6%

Row | Compound | activity change (PNC), negative = inhibition
23 | COC(=O)c1cc(OC)c(OC)cc1NCC(=O)Nc1ccc(C)cc1 | inconclusive: -37.8%
24 | CCNc1nc2ccccc2[nH]1 | active: -109%
25 | O=C(c1ccco1)N1CCN(C(=O)c2sccc2-c2ccccc2)CC1 | active: -100%
26 | O=C1c2ccc(Oc3ccc4c(c3)C(=O)N(CCCCO)C4=O)cc2C(=O)N1CCCCO | inconclusive: -47.8%
27 | O=C(CN1CCC(O)(c2ccc(F)cc2)CC1)NCc1ccc(F)cc1 | inconclusive: -34.6%
28 | N#CCSc1nnc(C2CCCCC2)n1Cc1ccccc1 | inconclusive: -44.9%
29 | COc1cccc(N/C=C(\C#N)c2ccc(OCCCF)cc2)c1 | inconclusive: -42%
30 | COc1ccccc1CN(Cc1nc2ccccc2c(=O)[nH]1)C(=O)Nc1ccccc1C | active: -115%
31 | COCCOC(=O)C1=C(C)NC2=C(C(=O)CC(C)(C)C2)C1c1ccc(N(C)C)cc1 (stereo not drawn) | inactive: -6.49%
32 | CCCC(=O)Nc1ccc(C(=O)NNC(=O)c2ccco2)cc1 | inactive: 59.4%
33 | COc1cccc(-c2nc(CS(=O)CC(=O)NCCCOC(C)C)c(C)o2)c1 (stereo not drawn) | inconclusive: -48.6%
34 | Fc1ccccc1-n1[nH]nnc1=S | inactive: 34.8%
35 | CC(/C=N/NC(=O)Cc1cccs1)=C\c1ccco1 | inactive: 90.3%
36 | CCCc1cc(Nc2cccc(OCC)c2)n2ncnc2n1 | inconclusive: -39.3%
37 | N=c1n(CCc2ccccc2)c2ccccc2n1Cc1ccccc1F | inconclusive: -32.3%
38 | O=C(Nc1ccon1)c1csc2ccccc12 | inactive: -22.6%
39 | CC(C)(Oc1ccc(Cl)cc1)C(=O)Nc1ncccn1 | inconclusive: -44.7%
40 | CCC(C)(C)NC(=O)C(c1ccc(C)cc1)N(Cc1ccco1)C(=O)Cn1nnc2ccccc21 (stereo not drawn) | active: -100%
41 | Cc1cc(C(=O)N/N=C/c2cccc(OC(=O)c3ccco3)c2)n[nH]1 | inconclusive: -58.8%
42 | Cc1noc(C)c1S(=O)(=O)N1CCCC(C(=O)NCCC2=CCCCC2)C1 (stereo not drawn) | inconclusive: -30.1%
43 | COc1cc(OC)cc(C(=O)Nc2cccc(N3CCCC3)c2)c1 | inactive: 46.6%
44 | COc1cccc(NC(=S)N(CCN(C)C)C(C)c2ccco2)c1 (stereo not drawn) | inconclusive: -38.8%

Row | Compound | activity change (PNC), negative = inhibition
45 | Cc1ccc(NC(=O)COC(=O)c2cc(Cl)ccc2Cl)c(Br)c1 | inconclusive: -50.7%
46 | Cc1ccc(Sc2nc3c(c(=O)[nH]c(=O)n3C)n2CCc2ccccc2)cc1 | inactive: 38.3%
47 | Cc1ccc(-n2c(C)cc(/C([O-])=C(/C(=S)Nc3ccc(F)c(Cl)c3)[n+]3ccccc3)c2C)cc1 | inconclusive: -56.6%
48 | Cc1cc(NS(=O)(=O)c2ccc(NC(=O)CCCOc3ccc(Cl)cc3)cc2)no1 | inactive: 24.7%
49 | COC(=O)C1=C(C(C)=O)C(c2ccc(C(=O)OC)cc2)n2nnnc2N1 (stereo not drawn) | inconclusive: -59.5%
50 | Cc1cccc2cc(C3CC(c4ccco4)=NN3C(=O)CCC(=O)O)c(Cl)nc12 (stereo not drawn) | inconclusive: -49.3%
51 | COCCn1c(C)cc(C(=O)COC(=O)CCN2C(=O)c3ccccc3C2=O)c1C | inconclusive: -61.2%
52 | COc1ccc(Cc2nnc(N/N=C/c3ccc(O)cc3O)[nH]c2=O)cc1OC | inactive: -25%
53 | CN1CC(=O)N(CC(=O)NCCc2ccc(F)cc2)c2ccccc2C1=O | inactive: 17.6%
54 | COc1ccccc1NC(=O)c1ccc(NS(=O)(=O)c2ccc(F)c(F)c2F)cc1 | active: -121%
55 | Cc1ccc2nc(N3CCN(c4cccc(C)c4C)CC3)c3nnnn3c2c1 | inactive: 35.4%
56 | CC(C)CC(CO)N1CCN(C(=O)c2ccc(Cl)cc2Cl)CCC1=O (stereo not drawn) | active: -91.5%
57 | O=S(=O)(c1ccc(Cl)cc1)N1CCN(C(=S)Nc2ccc(F)c(Cl)c2)CC1 | inconclusive: -46.7%
58 | COc1ccc(NC(=O)CSC2=C(C#N)C(c3ccco3)C3=C(CCCC3=O)N2)c(OC)c1 (stereo not drawn) | inconclusive: -60.2%
59 | CCN(CC)C(=O)CSc1nc2ccccc2c(=O)n1CC1CCCCC1 | inactive: -28.3%
60 | CC1CCCN(S(=O)(=O)c2cc(Cl)ccc2Cl)C1 (stereo not drawn) | inconclusive: -53.7%
61 | COc1cc(C(=O)NNC(=O)c2ccc(S(=O)(=O)N3CCCCC3)cc2)cc(OC)c1OC | inconclusive: -39.6%
62 | Cc1ccc(C(=O)NCC(=O)OCC(=O)/C=C2\N(C)c3ccccc3C2(C)C)cc1C | inconclusive: -57.5%
63 | CC(C)Cc1nc(N2CCN(C(=O)c3ccccc3)CC2)c(C#N)c2c1CCC2 | inconclusive: -39%
64 | CC(C)(C)NC(=O)c1cccc(NC(=O)CSc2ccc(Cl)cc2)c1 | inconclusive: -51.8%
65 | O=C(Cc1ccccc1)Nc1ccc(NC(=O)c2cccs2)c(Cl)c1 | inconclusive: -43.3%
66 | CCCCCC(=O)N1CCN(CCN=CC2=C(O)CC(c3ccc(OC)c(OC)c3)CC2=O)CC1 (stereo not drawn) | inconclusive: -63.4%

In the list so far, these have two or more sulfur atoms.
Row | Compound | activity change (PNC), negative = inhibition
2 | CCOC(=O)CSc1nc2c(sc3ccc([N+](=O)[O-])cc32)c(=O)n1Cc1ccco1 | active: -86.6%
4 | O=C(NCCc1ccccc1Cl)C1CCN(S(=O)(=O)c2cccs2)CC1 | inconclusive: -47.1%
6 | CSc1nnc2n(-c3ccccc3)c(=O)c3c4c(sc3n12)CCC4 | inactive: 14.7%
16 | COc1ccc(N2CC(C(=O)Nc3nnc(SCc4ccccn4)s3)CC2=O)cc1 (stereo not drawn) | inconclusive: -58.1%
57 | O=S(=O)(c1ccc(Cl)cc1)N1CCN(C(=S)Nc2ccc(F)c(Cl)c2)CC1 | inconclusive: -46.7%

The list goes on.

Row | Compound | activity change (PNC), negative = inhibition
67 | CC(C)OC(=O)c1cccc(C(=O)OCc2ccco2)n1 | inactive: -9.87%
68 | COC(=O)c1ccccc1NC(=O)N1c2ccccc2Sc2ccccc21 | inconclusive: -39.1%
69 | COc1ccccc1-c1c(C)nn2c(C)cc(C)nc12 | inconclusive: -57.4%
70 | O=C(c1ccccc1)N(Cc1cccnc1)C1(C(=O)Nc2ccccc2)CCCCC1 | active: -110%
71 | COC(=O)c1sccc1NC(=O)CSc1ccccc1NS(=O)(=O)c1cc(Cl)ccc1Cl | inconclusive: -38.9%
72 | COc1cc(NC(=O)Cn2c(C)cc3ccccc3c2=O)cc(OC)c1OC | inactive: -6.5%
73 | CCN(CC)CCNC(=O)c1ccc2c(=O)n(C3CCCC3)c(=S)[nH]c2c1 | inconclusive: -33.4%
74 | COC(=O)c1cc(NC(=O)CC2C(=O)NCCN2C(=O)c2ccc(F)cc2)cc(C(=O)OC)c1 (stereo not drawn) | inconclusive: -36.3%
75 | Cc1ccc(NS(=O)(=O)c2ccc(CCC(=O)NC3CC3)cc2)cc1 | inconclusive: -38%
76 | COc1ccc(NCc2cc3ccccc3[nH]c2=O)cc1 | inconclusive: -34.8%
77 | Cc1ccc(N2C(=O)CSC23C(=O)Nc2ccccc23)cc1 (stereo not drawn) | inconclusive: -44.6%
78 | COC(=O)c1cc(C(=O)OC)cc(N2C(=O)CC(NNC(=O)c3ccccc3Br)C2=O)c1 (stereo not drawn) | inactive: 26.1%
79 | COc1ccccc1N1CCN(C(=O)c2oc3ccc(Br)cc3c2C)CC1 | active: -95.1%
80 | O=c1ccc(Oc2nc(N3CCCCC3)nc(N3CCCCC3)n2)n[nH]1 | active: -100%
81 | CC(NC(=O)c1ccco1)C(=O)OCc1cccc(Cl)c1 (stereo not drawn) | inconclusive: -53%
82 | CCOc1ccc(CCNc2nc3c(c(=O)n(C)c(=O)n3C)n2CC)cc1OCC | inconclusive: -44.4%
83 | O=C(NCC1(c2ccccc2)CCCC1)c1ccccc1Br | inconclusive: -45.4%
84 | CCOC(=O)c1c(C)[nH]c(C(=O)CSc2nnnn2-c2ccccc2)c1C | inconclusive: -41.8%
85 | CCOC(=O)C1=C(N)OC2=C(C(=O)CC(C)(C)C2)C1c1ccccc1OCC#N (stereo not drawn) | inconclusive: -41.4%
86 | O=C(O)CCc1ccc(-c2cccs2)n1NC(=O)c1ccc(O)cc1 | inconclusive: -46.2%
87 | CC(CN1CCCCC1)OC(=O)Cc1ccc(Cl)cc1 (stereo not drawn) | inconclusive: -56%
88 | CCOc1ccc(Cl)cc1S(=O)(=O)n1nnc2ccccc21 | inconclusive: -48.9%
